Reference: patent US8883170B2 (priority 2008, dated 2014)
Some of these results come from one statement about several compounds together. For at least one compound, name, drawing or mass did not settle the structure.

Test system: BALB/c mice
Settings: single s.c. injection

Structure (SMILES)	maximum tolerated dose (MTD) (mice approx. 20 gm, not reached)	maximum tolerated dose (MTD) for males (male mice)
CCCCCCCCCCCCNC(=O)C12CCC(C)(C)CC1C1=CCC3C4(C)CCC(O)C(C)(C=O)C4CCC3(C)C1(C)CC2 (centres unmarked) [Dodecyl genin, dodecylamide derivative of gypsogenin]	above 4 mg	–
CCCCCCCCCCCCNC(=O)[C@]12CCC(C)(C)C[C@H]1C1=CCC3[C@@]4(C)CC[C@H](OC5OC(CO)C(O)C(O)C5O)[C@@](C)(C=O)C4CC[C@@]3(C)[C@]1(C)CC2 (some centres unmarked) [Saponin 1]	–	above 4 mg
